Measured data: PubChem BioAssay AID1259424 (University of Nebraska Medical Center, 2018)

Purpose: 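Find knockdowns that reproduce the expression shifts seen after KSR1 loss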 (primary screen)
Cells: human HCT116 colon cancer cells
Knock-down reagent: siRNA pool against human genes, 50 nM
Read-out: 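Log2 levels of six mRNAs (branched-DNA multiplex), adjusted by two reference genes and the non-targeting median, then scored against the average KSR1 knockdown pattern as Pearson r and euclidean distance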
Direction: mean correlation with KSR1 profile: higher = expression change more like KSR1 knockdown
Shown is one part, drawn at random, of about 14,000 deposited reagents. 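Higher correlation or smaller distance means closer resemblance to KSR1 loss; control wells, including KSR1 knockdowns, recur on many plates.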 Further read-outs or replicates are left out here. The record does not give: the time to read-out.

gene | mean correlation with KSR1 profile
ADGRB1 | 0.607
FGFR2 | 0.196
RBM22 | -0.631
RAB8A | -0.472
PLCD4 | 0.486
WNT2B | -0.0722
KIF14 | -0.341
EIF6 | -0.234
VPS33B | 0.204
BTF3 | -0.799
IK | -0.191
WRAP53 | -0.347
CENPO | 0.367
RIC8A | 0.357
FSCB | 0.802
NUP50 | -0.589
ZFYVE9 | -0.671
DESI2 | -0.225
SLC44A1 | 0.35
AGFG1 | -0.393
SNURF | -0.416
TTR | 0.448
PSMD13 | -0.742
IRX4 | 0.171
CXCL1 | 0.649
HSDL2 | 0.442
LIN28A | 0.362
LRP1B | 0.214
BCAS1 | -0.142
TMEM69 | -0.107
RUSF1 | -0.66
RPL35 | -0.396
SEC13 | 0.322
ARC | -0.0725
